Results published in patent US12233077B2, “Therapeutic treatment of breast cancer based on c-MAF status” (INBIOMOTION S.L., priority 2017, dated 2025).
At least one compound was matched to its structure with a doubt left.

System: patients with invasive stage II or III breast cancer (AZURE trial)
Assay: AZURE trial, effect of MAF amplification on treatment outcomes with adjuvant zoledronic acid (Example 3)
Type: in vivo, human
Conditions: nonpostmenopausal women with MAF-positive tumors
From the text: 3,360 patients from 174 centers worldwide were recruited to the AZURE trial between Sep. 4, 2003, and Feb. 16, 2006. Eligible patients had histologically confirmed invasive stage II or III breast cancer of any subtype, with either pathologically involved axillary lymph node metastasis or a T3 or T4 primary tumor treated with curative intent and complete resection of the primary tumor (or planned resection if patients were being treated with neoadjuvant chemotherapy). Other inclusion criteria were age 18 years or older, Karnofsky performance status score 80 or more, and not being pregnant or breastfeeding. Patients were excluded if they had clinical or imaging evidence of distant metastases, current or recent (<1 year) use of bisphosphonates, or pre-existing bone disease likely to require bone-targeted treatment. All patients gave written informed consent. In the UK, patients also provided voluntary specific consent for use of biological materials (primary tumor and blood samples). […]
5 μm thick slices were cut from each TMA block and oriented to match the TMA map to allow identification of each tissue core. […] MAF amplification was assessed with the validated MAFTEST fluorescence in situ hybridization (FISH) with the MAF/D16Z3 probe (Inbiomotion, Barcelona, Spain). […]

O=P(O)(O)C(O)(Cn1ccnc1)P(=O)(O)O [zoledronic acid]
relapse at extraskeletal sites compared with the control group: marked increase
